Laboratory results from US4073917A, “Local anesthetics tertiary aminoalkoxyphenyl ethers” (priority 1974, dated 1978).
At least one compound was matched to its structure with a doubt left.

Experiment: local anesthetic activity (general statement, test not specified)
Conditions: in vivo

CCN(CC)CCOc1ccccc1OC [RAP 419, o-methoxy-(diethylaminoethoxy)-benzene, reference compound]
local anesthetic activity (in words): not been able to find any local anesthetic activity
